# For at least one compound, name, drawing or mass did not settle the structure.
# Columns and labels:
# Assay type in all cases: cell-based
# ENaC-α = ENaC-α expression (real-time PCR, western blot) in rat RMG primary cultures and retinal explants; conditions: 24 hrs treatment
# Experimental: (§1) Rat RMG cells were obtained as described (deKozak, Y., Naud, M. C., Bellot, J., Faure, J. P., and Hicks, D. (1994) Differential tumor necrosis factor expression by resident retinal cells from experimental uveitis-susceptible and -resistant rat strains. J Neuroimmunol 55, 1-9). Briefly, rats at postnatal (PN) day 17 (when RMG cells are mature) were sacrificed and eyes enucleated. Intact eyeballs were maintained in DMEM overnight at room temperature in the dark, and then incubated 45 min with 2 mg/ml trypsin/collagenase I at 37° C. […]
# (§2) After enucleation, rat retinas were isolated immediately under aseptic conditions and cut into 4 pieces. […] Similarly, the dose-dependent effect of aldosterone (0.1-100 nM) was analyzed on retinal explants in separate experiments.
# (§3) Total RNA was isolated from the treated RMG cells and retinal explants using RNeasy Mini Kit (Qiagen, Courtaboeuf, France). […] Transcript levels of ENaC-a, Kir4.1 and AQP4 were analyzed by real-time PCR performed in 7500 Real-Time PCR System (Applied Biosystems, Foster City, Calif., USA) with either TaqMan® (Applied Biosystems) or SYBR® Green (Invitrogen, Cergy Pontoise, France) detection. […]
# (§4) Retinal explants were homogenized in Np40 buffer in the presence of protease inhibitors. The protein concentration was determined by the Bradford method. […]
# Kir4.1 = Kir4.1 expression (real-time PCR, western blot) in rat RMG primary cultures and retinal explants; conditions: 24 hrs treatment
# Experimental: as §1, §2, §3, §4
# AQP4 = AQP4 expression (real-time PCR, western blot) in rat RMG primary cultures and retinal explants; conditions: 24 hrs treatment; RMG primary cultures or retinal explants
# Experimental: as §1, §2, §3, §4
# MR gene = MR gene expression (Example 2)
smiles,measurement,setting,value
C[C@@H]1C[C@H]2[C@@H]3CCC4=CC(=O)C=C[C@]4(C)[C@@]3(F)[C@@H](O)C[C@]2(C)[C@@]1(O)C(=O)CO [dexamethasone],ENaC-α subunit mRNA expression,ENaC-α,increase ENaC-α expression
same,Kir4.1 expression (transcripts),Kir4.1,up-regulate
same,AQP4 mRNA expression,AQP4,ineffective
same,MR gene expression,MR gene,decreases

# From US9610294B2, “Methods and compositions for the treatment of fluid accumulation in and/or under the retina” (UNIVERSITE PARIS DESCARTES, priority 2010, dated 2017)
